Tests used:
[1] = Trial 3: effect of solvents on terpene recoveries from a gas standard; conditions: for Terpenes, concentration in sample C02: terpenes in ethanol, RPC 286508-2, RL 0.0001; for Terpenes, concentration in sample C01: terpenes in ethanol-hexane, RPC 286508-1, RL 0.0001; for Terpenes, concentration in sample C03: terpenes in hexane, RPC 286508-3, RL 0.0001
[2] = Trial 10: collection of cannabis vapor at 210 °C using glass fiber filter pads; conditions: for Terpenes in cannabis oil, Client Sample ID N01: RPC Sample ID 293753-01; for Terpenes in cannabis oil, Client Sample ID N01 / Terpenes in cannabis oil, Client Sample ID N03 / Terpenes in cannabis oil, Client Sample ID N02 / Terpenes in cannabis oil, Client Sample ID P01 / Terpenes in cannabis oil, Client Sample ID P02 / Terpenes in cannabis oil, Client Sample ID P03: Cannabis Vapor In Hexane; for Terpenes in cannabis oil, Client Sample ID N03: RPC Sample ID 293753-03; for Terpenes in cannabis oil, sample N01 (Cannabis Vapor In Hexane): RPC 293753-01; for Terpenes in cannabis oil, sample N02 (Cannabis Vapor In Hexane): RPC 293753-02; for Terpenes in cannabis oil, sample N03 (Cannabis Vapor In Hexane): RPC 293753-03; for Terpenes in cannabis oil, Client Sample ID N02: RPC Sample ID 293753-02; for Terpenes in cannabis oil, Client Sample ID P01: RPC Sample ID 293753-09; for Terpenes in cannabis oil, Client Sample ID P02: RPC Sample ID 293753-10; for Terpenes in cannabis oil, Client Sample ID P03: RPC Sample ID 293753-11; for Mass recovered from vapor: Trial 10, terpenes, broken pellets 232.3 mg, 210° C., 6 minutes, 1 filter pad and 2 impingers, hexane
[3] = Volcano Medic, 210 °C, cited from earlier work
[4] = RL 0.001, Trial 10 vapor 210° C., first trap (filter pad extract)
[5] = RL 0.001, Trial 10, trap after filter pad

Row | Compound | Terpenes, concentration in sample C02 [1] [%] | Terpenes, concentration in sample C01 [1] [%] | Terpenes, concentration in sample C03 [1] [%] | Terpenes in cannabis oil, Client Sample ID N01 ([2]; RL 0.001) [mg/mL] | Terpenes in cannabis oil, Client Sample ID N03 ([2]; RL 0.001) [mg/mL] | further results
1 | C=C/C(C)=C\CC=C(C)C [Cis-ocimene] | <0.0001 | <0.0001 | <0.0001 | <0.001 | <0.001 | –
2 | CC12CCC(CC1)C(C)(C)O2 [Eucalyptol] | <0.0001 | <0.0001 | <0.0001 | <0.001 | <0.001 | –
3 | CC12CCC(C1)C(C)(C)C2O (stereo not drawn) [Fenchol] | <0.0001 | <0.0001 | <0.0001 | <0.001 | <0.001 | –
4 | C[C@H]1CC[C@@H](C(C)(C)O)CC2=C1CC[C@@H]2C [Guaiol] | <0.0001 | <0.0001 | <0.0001 | <0.001 | <0.001 | –
5 | C/C1=C\CC/C(C)=C/CC(C)(C)/C=C/C1 [Humulene] | <0.0001 | <0.0001 | <0.0001 | 0.001 | <0.001 | –
6 | C=C(C)[C@H]1CC=C(C)CC1 [Limonene] | <0.0001 | <0.0001 | <0.0001 | <0.001 | <0.001 | –
7 | C=CC(C)(O)CCC=C(C)C (stereo not drawn) [Linalool] | <0.0001 | <0.0001 | <0.0001 | 0.001 | <0.001 | –
8 | C=CC(=C)CCC=C(C)C [Myrcene] | <0.0001 | <0.0001 | <0.0001 | <0.001 | <0.001 | –
9 | C=C1CCC2(C(C)C)CC12 (stereo not drawn) [Sabinene] | <0.0001 | <0.0001 | <0.0001 | <0.001 | <0.001 | –
10 | CCCCCc1cc(O)c2c(c1)OC(C)(C)[C@@H]1CCC(C)=C[C@@H]21 [THC, tetrahydrocannabinol, reference compound] | – | – | – | – | – | Cannabinoids in oil by HPLC, sample N11 (Cannabis Vapor In Methanol) ([2]; RPC 293753-04, RL 0.001, Trial 10 vapor 210° C., first trap (filter pad extract)): 0.310 mg/mL; Cannabinoids in oil by HPLC, sample N15 (Cannabis Vapor In Methanol) ([2]; RPC 293753-08, RL 0.001, Trial 10, trap after filter pad): <0.001 mg/mL; Cannabinoids in oil by HPLC, Client Sample ID N11 ([2]; RPC Sample ID 293753-04, Cannabis Vapor In Methanol, RL 0.001): 0.310 mg/mL; Cannabinoids in oil by HPLC, Client Sample ID N15 ([2]; RPC Sample ID 293753-08, Cannabis Vapor In Methanol, RL 0.001): <0001 mg/mL; Cannabinoids in oil by HPLC, Client Sample ID P11 ([2]; RPC Sample ID 293753-12, Cannabis Vapor In Methanol, RL 0.001): 0.347 mg/mL; THC recovered from the vapor within the first valve balloon ([3]; loaded dose 10 mg): ~6 mg; THC recovered in first valve balloon, share of loaded dose ([3]; loaded dose 10 mg): 60%; THC in the second balloon [3]: less than 0.5 mg
11 | CC1=CCC(=C(C)C)CC1 [Terpinolene] | <0.0001 | <0.0001 | <0.0001 | <0.001 | <0.001 | –
12 | C=CC(C)(O)CC/C=C(\C)CCC=C(C)C (stereo not drawn) [Trans-nerolidol] | <0.0001 | <0.0001 | <0.0001 | 0.002 | <0.001 | –
13 | C=C/C(C)=C/CC=C(C)C [Trans-ocimene] | <0.0001 | <0.0001 | <0.0001 | <0.001 | <0.001 | –
14 | C=C(C)[C@@H]1CCC2=CCC[C@@H](C)[C@]2(C)C1 [Valencene] | <0.0001 | <0.0001 | <0.0001 | 0.001 | <0.001 | –
15 | Caryophyllene | <0.0001 | <0.0001 | <0.0001 | 0.003 | <0.001 | Terpenes in cannabis oil, sample N01 (Cannabis Vapor In Hexane) [2, 4]: 0.003 mg/mL; Terpenes in cannabis oil, sample N02 (Cannabis Vapor In Hexane) [2, 5]: <0.001 mg/mL; Terpenes in cannabis oil, sample N03 (Cannabis Vapor In Hexane) [2, 5]: <0.001 mg/mL; Terpenes in cannabis oil, Client Sample ID N02 ([2]; RL 0.001): <0.001 mg/mL; Terpenes in cannabis oil, Client Sample ID P01 ([2]; RL 0.001): 0.002 mg/mL; Terpenes in cannabis oil, Client Sample ID P02 ([2]; RL 0.001): <0.001 mg/mL; Terpenes in cannabis oil, Client Sample ID P03 ([2]; RL 0.001): <0.001 mg/mL; Mass recovered from vapor [2]: 0.03 mg
16 | Terpineol | <0.0001 | <0.0001 | <0.0001 | 0.003 | <0.001 | Terpenes in cannabis oil, sample N01 (Cannabis Vapor In Hexane) [2, 4]: 0.003 mg/mL; Terpenes in cannabis oil, sample N02 (Cannabis Vapor In Hexane) [2, 5]: <0.001 mg/mL; Terpenes in cannabis oil, sample N03 (Cannabis Vapor In Hexane) [2, 5]: <0.001 mg/mL; Terpenes in cannabis oil, Client Sample ID N02 ([2]; RL 0.001): <0.001 mg/mL; Terpenes in cannabis oil, Client Sample ID P01 ([2]; RL 0.001): 0.002 mg/mL; Terpenes in cannabis oil, Client Sample ID P02 ([2]; RL 0.001): <0.001 mg/mL; Terpenes in cannabis oil, Client Sample ID P03 ([2]; RL 0.001): <0.001 mg/mL; Mass recovered from vapor [2]: 0.03 mg
